Consider 2 molecules from paper PMC10371240.

Amino acid sequences for entries named in this document (tags omitted).
UniProt Q9NZJ4: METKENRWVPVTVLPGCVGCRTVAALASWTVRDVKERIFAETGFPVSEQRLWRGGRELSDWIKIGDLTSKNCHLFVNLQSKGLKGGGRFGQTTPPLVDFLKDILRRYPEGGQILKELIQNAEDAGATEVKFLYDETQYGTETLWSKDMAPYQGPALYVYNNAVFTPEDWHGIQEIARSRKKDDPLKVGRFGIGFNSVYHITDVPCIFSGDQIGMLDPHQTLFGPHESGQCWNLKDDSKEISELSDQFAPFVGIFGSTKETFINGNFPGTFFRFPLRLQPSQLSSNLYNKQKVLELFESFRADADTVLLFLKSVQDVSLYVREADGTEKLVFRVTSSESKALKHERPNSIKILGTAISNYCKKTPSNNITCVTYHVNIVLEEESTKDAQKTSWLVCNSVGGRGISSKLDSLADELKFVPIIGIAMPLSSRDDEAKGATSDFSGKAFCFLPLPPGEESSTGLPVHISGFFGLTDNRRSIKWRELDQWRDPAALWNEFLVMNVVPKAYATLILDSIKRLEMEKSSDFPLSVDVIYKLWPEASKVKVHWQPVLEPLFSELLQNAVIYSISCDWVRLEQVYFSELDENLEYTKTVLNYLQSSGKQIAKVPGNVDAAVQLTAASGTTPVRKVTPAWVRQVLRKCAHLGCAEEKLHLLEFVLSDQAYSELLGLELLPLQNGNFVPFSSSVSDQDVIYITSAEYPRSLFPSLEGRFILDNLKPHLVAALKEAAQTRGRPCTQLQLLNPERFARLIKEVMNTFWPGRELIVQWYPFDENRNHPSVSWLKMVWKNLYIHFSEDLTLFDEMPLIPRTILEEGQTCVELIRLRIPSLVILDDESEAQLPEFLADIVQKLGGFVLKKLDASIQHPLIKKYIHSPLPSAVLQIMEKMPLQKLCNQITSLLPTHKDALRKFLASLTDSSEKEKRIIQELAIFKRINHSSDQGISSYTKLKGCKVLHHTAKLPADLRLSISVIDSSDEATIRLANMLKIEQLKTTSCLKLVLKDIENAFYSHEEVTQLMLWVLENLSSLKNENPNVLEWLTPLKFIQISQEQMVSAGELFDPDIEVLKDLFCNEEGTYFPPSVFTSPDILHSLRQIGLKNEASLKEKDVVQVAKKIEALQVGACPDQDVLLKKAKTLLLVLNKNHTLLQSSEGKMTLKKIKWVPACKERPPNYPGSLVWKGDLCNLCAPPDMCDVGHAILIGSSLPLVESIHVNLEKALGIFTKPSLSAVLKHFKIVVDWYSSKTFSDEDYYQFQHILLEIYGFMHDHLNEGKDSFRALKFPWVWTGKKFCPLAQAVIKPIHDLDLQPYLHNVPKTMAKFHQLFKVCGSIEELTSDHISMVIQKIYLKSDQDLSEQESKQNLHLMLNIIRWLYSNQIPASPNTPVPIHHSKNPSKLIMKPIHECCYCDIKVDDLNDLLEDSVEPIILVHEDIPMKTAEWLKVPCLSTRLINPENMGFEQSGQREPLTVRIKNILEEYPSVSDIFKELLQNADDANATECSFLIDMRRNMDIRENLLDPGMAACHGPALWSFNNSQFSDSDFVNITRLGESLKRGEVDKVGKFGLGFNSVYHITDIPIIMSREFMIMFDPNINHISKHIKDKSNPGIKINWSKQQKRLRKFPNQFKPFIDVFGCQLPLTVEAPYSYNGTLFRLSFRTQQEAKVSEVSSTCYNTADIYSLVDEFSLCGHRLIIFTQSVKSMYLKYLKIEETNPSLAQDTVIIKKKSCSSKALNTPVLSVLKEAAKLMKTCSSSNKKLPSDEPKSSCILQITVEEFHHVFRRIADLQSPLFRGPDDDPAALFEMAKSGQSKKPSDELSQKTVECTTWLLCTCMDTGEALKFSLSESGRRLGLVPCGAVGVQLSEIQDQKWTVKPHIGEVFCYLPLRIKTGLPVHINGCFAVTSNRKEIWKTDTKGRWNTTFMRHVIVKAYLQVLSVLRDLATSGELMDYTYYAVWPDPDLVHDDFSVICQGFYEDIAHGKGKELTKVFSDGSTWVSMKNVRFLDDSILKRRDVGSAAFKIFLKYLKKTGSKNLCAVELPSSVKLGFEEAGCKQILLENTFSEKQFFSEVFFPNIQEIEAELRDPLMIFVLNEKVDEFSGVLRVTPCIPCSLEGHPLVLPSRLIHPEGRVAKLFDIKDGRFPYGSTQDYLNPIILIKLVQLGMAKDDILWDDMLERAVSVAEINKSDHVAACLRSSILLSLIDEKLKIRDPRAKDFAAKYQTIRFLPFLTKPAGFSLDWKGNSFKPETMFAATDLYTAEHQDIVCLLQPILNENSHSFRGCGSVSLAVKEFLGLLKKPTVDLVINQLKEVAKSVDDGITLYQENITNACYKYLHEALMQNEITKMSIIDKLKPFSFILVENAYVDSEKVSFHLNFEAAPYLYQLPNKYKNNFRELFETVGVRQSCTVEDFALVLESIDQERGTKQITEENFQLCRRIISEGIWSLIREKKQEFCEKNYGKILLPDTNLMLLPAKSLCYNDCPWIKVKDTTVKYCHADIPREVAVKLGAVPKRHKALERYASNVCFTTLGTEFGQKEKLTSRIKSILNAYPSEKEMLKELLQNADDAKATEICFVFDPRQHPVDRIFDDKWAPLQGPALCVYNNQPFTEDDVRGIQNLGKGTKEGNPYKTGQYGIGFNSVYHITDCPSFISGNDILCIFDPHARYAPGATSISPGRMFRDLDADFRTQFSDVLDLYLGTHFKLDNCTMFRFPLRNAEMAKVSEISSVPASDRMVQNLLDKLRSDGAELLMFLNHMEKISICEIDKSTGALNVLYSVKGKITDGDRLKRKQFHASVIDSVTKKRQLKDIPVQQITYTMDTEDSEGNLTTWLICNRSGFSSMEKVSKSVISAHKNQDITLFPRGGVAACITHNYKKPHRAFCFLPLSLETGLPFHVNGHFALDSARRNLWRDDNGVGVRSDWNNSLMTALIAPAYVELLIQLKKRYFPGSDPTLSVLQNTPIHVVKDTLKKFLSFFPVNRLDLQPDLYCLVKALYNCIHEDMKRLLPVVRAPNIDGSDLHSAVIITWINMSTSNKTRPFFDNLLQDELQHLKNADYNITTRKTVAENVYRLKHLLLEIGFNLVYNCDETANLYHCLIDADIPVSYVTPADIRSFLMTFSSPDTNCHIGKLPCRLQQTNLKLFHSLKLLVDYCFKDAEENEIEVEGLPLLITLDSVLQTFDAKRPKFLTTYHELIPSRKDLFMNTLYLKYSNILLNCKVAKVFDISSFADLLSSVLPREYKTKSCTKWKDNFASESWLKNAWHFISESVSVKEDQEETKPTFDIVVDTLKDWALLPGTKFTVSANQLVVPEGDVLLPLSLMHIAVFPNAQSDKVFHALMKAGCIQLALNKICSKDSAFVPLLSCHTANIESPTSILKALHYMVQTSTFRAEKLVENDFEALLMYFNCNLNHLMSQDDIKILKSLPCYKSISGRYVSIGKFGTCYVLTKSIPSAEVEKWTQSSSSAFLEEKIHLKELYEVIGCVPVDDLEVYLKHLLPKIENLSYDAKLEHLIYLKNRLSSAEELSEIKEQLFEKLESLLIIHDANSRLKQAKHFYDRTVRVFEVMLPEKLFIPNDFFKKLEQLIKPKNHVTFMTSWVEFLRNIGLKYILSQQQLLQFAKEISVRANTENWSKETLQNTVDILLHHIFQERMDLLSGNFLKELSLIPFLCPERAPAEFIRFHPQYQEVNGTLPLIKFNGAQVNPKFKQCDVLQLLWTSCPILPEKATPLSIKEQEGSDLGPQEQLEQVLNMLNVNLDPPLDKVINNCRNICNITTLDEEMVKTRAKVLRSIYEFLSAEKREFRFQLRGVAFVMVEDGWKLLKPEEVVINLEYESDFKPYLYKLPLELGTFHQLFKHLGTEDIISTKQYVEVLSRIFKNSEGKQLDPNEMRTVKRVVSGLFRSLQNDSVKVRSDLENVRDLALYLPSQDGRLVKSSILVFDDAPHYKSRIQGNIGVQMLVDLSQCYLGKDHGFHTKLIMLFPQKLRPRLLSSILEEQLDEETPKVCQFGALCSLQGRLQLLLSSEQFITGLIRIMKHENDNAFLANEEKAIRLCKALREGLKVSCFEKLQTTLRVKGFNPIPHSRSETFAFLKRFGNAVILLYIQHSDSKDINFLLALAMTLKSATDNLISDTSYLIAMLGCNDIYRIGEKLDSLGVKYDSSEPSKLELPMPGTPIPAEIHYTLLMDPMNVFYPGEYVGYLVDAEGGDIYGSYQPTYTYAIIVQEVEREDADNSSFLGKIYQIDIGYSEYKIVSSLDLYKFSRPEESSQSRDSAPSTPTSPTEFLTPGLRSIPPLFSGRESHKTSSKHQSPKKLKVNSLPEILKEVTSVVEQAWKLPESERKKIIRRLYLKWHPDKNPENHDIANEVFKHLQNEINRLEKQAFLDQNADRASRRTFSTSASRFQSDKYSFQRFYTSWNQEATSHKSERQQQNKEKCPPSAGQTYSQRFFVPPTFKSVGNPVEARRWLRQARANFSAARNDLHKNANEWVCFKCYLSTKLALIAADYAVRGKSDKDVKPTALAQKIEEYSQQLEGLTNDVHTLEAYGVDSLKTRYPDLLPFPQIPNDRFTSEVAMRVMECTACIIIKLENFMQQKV
UniProt Q9Y4I1: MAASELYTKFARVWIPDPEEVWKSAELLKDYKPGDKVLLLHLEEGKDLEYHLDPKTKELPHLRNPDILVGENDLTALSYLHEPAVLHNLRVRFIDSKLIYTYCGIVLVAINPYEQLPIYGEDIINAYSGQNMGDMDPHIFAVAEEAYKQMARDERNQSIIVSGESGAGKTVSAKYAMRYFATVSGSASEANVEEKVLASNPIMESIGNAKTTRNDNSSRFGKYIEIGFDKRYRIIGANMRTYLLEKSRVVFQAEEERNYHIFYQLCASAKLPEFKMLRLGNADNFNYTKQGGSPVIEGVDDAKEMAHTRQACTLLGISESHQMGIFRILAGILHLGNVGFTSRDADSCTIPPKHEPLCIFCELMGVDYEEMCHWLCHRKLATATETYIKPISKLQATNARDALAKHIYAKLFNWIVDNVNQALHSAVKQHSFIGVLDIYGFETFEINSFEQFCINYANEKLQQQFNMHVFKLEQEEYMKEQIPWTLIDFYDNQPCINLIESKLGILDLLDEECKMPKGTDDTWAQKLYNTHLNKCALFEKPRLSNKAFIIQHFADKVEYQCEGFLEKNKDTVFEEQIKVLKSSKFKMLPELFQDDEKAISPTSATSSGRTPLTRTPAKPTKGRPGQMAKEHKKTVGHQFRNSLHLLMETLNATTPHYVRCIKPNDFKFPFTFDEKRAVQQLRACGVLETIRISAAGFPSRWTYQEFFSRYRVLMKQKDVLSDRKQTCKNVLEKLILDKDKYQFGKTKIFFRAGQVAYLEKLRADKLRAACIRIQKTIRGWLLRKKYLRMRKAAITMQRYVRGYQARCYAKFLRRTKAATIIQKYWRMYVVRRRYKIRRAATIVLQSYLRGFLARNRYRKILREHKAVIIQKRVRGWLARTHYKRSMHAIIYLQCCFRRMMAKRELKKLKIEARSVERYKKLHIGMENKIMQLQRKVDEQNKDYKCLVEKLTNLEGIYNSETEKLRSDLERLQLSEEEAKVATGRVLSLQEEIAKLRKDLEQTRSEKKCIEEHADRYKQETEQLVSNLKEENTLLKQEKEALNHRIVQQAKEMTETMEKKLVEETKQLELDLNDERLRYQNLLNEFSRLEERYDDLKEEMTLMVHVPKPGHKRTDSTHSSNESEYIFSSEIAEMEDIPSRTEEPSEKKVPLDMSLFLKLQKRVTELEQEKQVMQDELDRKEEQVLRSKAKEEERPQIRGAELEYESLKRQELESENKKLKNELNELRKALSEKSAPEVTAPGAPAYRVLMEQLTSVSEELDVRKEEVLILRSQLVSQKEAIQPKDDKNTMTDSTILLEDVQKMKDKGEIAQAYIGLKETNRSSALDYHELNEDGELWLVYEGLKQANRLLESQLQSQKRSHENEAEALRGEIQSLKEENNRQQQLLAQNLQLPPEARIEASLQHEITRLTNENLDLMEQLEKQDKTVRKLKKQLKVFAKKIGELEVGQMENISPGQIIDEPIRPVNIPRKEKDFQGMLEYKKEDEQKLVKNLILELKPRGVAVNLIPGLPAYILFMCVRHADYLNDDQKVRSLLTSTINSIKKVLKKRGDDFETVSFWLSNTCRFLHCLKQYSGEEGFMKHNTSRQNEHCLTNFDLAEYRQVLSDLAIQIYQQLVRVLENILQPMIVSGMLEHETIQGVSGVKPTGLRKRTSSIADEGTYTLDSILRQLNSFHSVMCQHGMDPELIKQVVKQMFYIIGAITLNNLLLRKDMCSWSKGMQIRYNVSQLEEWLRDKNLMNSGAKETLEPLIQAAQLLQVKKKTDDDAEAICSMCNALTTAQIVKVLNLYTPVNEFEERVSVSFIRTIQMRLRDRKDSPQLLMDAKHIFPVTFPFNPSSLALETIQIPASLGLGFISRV

No constants are given. Whether binding was seen depends on the method and setting. In cells and extracts the contact can be indirect. Here binding means that the protein was enriched with, or labelled near, the bait; the list need not be complete.

The target in the test is sacsin (human (endogenous in SH-SY5Y)) (UniProt Q9NZJ4). The test can be described thus: affinity purification with mass spectrometry; IP of endogenous sacsin (anti-sacsin antibody on magnetic Dynabeads) from lysate of WT SH-SY5Y cells differentiated into neurons; lysis in 5 mM EDTA pH 8.0, 0.1% Triton X-100 in PBS; overnight at 4°C; eluates by label-free quantitative LC-MS/MS; SACS-/- SH-SY5Y cells as negative control.

For the molecule myosin Va (from UniProt Q9Y4I1 1-1855), the binding result is listed as “binds”.

B1: neurofilament light subunit (NFL) (protein, UniProt P07196 1-543)
chain: MSSFSYEPYYSTSYKRRYVETPRVHISSVRSGYSTARSAYSSYSAPVSSSLSVRRSYSSSSGSLMPSLENLDLSQVAAISNDLKSIRTQEKAQLQDLNDRFASFIERVHELEQQNKVLEAELLVLRQKHSEPSRFRALYEQEIRDLRLAAEDATNEKQALQGEREGLEETLRNLQARYEEEVLSREDAEGRLMEARKGADEAALARAELEKRIDSLMDEISFLKKVHEEEIAELQAQIQYAQISVEMDVTKPDLSAALKDIRAQYEKLAAKNMQNAEEWFKSRFTVLTESAAKNTDAVRAAKDEVSESRRLLKAKTLEIEACRGMNEALEKQLQELEDKQNADISAMQDTINKLENELRTTKSEMARYLKEYQDLLNVKMALDIEIAAYRKLLEGEETRLSFTSVGSITSGYSQSSQVFGRSAYGGLQTSSYLMSTRSFPSYYTSHVQEEQIEVEETIEAAKAEEAKDEPPSEGEAEEEEKDKEEAEEEEAAEEEEAAKEESEEAKEEEEGGEGEEGEETKEAEEEEKKVEGAGEEQAAKKKD
Take B1: the binding entry is “binds”.
